Measured values published in patent EP0557936A1, “Amidic derivatives of (R)-glycerophosphoryl-(S)-serine or of its diacyl derivative, process for their preparation and relative pharmaceutical compositions for the improvement of the learning processes” (MAGIS FARMACEUTICI S.p.A., priority 1992, dated 1993).

System: scopolamine induced amnesy
Test: passive avoidance test, scopolamine induced amnesia (intraperitoneal administration)
Type: in vivo, rat
Details: scopolamine 1 mg/kg, 10 rats
Experimental: The antiamnesic activity was tested by means of the classical passive avoidance test, with respect to the amnesy induced in the rat, by administration of scopolamine, or by means of electroconvulsive shock (ECS).For both the tests a shuttle-box was used of the Ugo Basile Company (Comerio, Varese), consisting of two compartments, one of which compartments was clear and the other one dark and fitted with an electrifiable floor.
In order to induce a passive avoidance response, the animal was placed onto a runner of the clear compartment, enlightened by a 60 watt lamp, for a 1 minute acclimatisation, whereafter a bulkhead was opened putting the runner in communication with the dark compartment, which the animal istinctively entered after a latency of a few seconds. The bulkhead was immediately shut and the animal got a 0.21 mA current for 2 second through the electrifiable floor. The animal was then removed and newly subjected to the test 24 h later, in order to verify the retention level of the acquired response of passive avoidance, measuring the latency required by the entry into the electrifiable compartment, with an end-point of 300 second.
All the tests were carried out under conditions of stratified randomization, using in each test session the same number of animals for the different experimental groups tested in parallel, and comprising, besides the groups treated with the product under test (test substances and reference substances having known activity), two separate groups of controls and precisely: blank controls (animals treated with placebo) and deconditioned controls (animals treated with placebo and subjected to amnesic treatment by means of scopolamine or of ECS).
The results obtained with the different dosages of the products subjected to screening and with the corresponding reference standards having a known activity, namely N(S)-3-(formyl-amino)-epsilon-caprolactam, N(4-phenylbutanoyl-hydroxy)prolyl-pyrrolidine and glycerophosphoryl-serine, were expressed as a percentage of antagonism of the amnesy (AA), defined according to the following formula: [formula] wherein the index of comparison IC, concerning treated animals (t) and blank controls (b), is defined by the formula: [formula] wherein: Nm = number of animals belonging to group m (blanks or treated animals); Nn = number of animals belonging to group n (deconditioned animals); Amn = binary function which can assume only the values +1, zero or - 1, depending on the fact that the latency time (seconds) of an animal of the m group (xm) be respectively higher than, equal to or lower than the latency time (seconds) of an animal of the n group (xn).
The summation Σ Amn i extended to all the pairs obtained combining each xm term with each xn term.
Normally the comparison index (IC) between blank controls and deconditioned controls is between 60% and 80% and the test was discarded when such index resulted to be lower than 40%.
The utilized rats were male C.r.l.: CD (50) BR (Charles River Italia), showing a weight of 150-170 g, after an acclimatisation time of a week, under standard conditions.
The animals got the products to be tested by intraperitoneal way and scopolamine bromhydrate (1 mg/kg) by subcutaneous way, respectively 45 and 30 minutes before being subjected to the previously described avoidance test.
As to the standard substances [GFS, N(S)-3-(formylamino)-epsilon-caprolactam and N(4-phenylbutanoylhydroxy)prolyl-pyrrolidine], the used dosage was 4x10⁻² mmol/kg, whereas for the products to be tested the used dosage was between 1x10⁻² and 12x10⁻² mmol/kg, with an intermediate dosage equimolar with respect to the one of the standards.

N[C@@H](COP(=O)(O)OC[C@H](O)CO)C(=O)O [GFS, glycerophosphoryl-serine, reference compound]
LEARNING Initial avoid. time (sec.) (dose 4.10^-2 mmoli/kg i.p.): 2,2 sec.
LEARNING Learn-ing time (dose 4.10^-2 mmoli/kg i.p.): 110 s

COC(=O)CN1CCCC[C@H](NC(=O)[C@@H](N)COP(=O)(O)OC[C@H](O)CO)C1=O [MGS 2]
LEARNING Initial avoid. time (sec.) (dose 4.10^-2 mmoli/kg i.p.): 1,9 sec.
LEARNING Learn-ing time (dose 4.10^-2 mmoli/kg i.p.): 110 s
LEARNING Initial avoid. time (sec.) (dose 8.10^-2 mmoli/kg i.p.): 2,3 sec.
LEARNING Learn-ing time (dose 8.10^-2 mmoli/kg i.p.): 110 s
LEARNING Initial avoid. time (sec.) (dose 12.10^-2 mmoli/kg i.p.): 2,1 sec.
LEARNING Learn-ing time (dose 12.10^-2 mmoli/kg i.p.): 110 s

O=CN[C@H]1CCCCNC1=O [N-Formylamino ε -caprolactame, N(S)-3-(formyl-amino)-epsilon-caprolactam, reference compound]
LEARNING Initial avoid. time (sec.) (dose 4.10^-2 mmoli/kg i.p.): 2,1 sec.
LEARNING Learn-ing time (dose 4.10^-2 mmoli/kg i.p.): 110 s

N(4-phenylbutanoyl-hydroxy)prolyl-pyrrolidine [Phenyl-butirryl prolyl-pirrolidine, reference compound]
LEARNING Initial avoid. time (sec.) (dose 4.10^-2 mmoli/kg i.p.): 2,3 sec.
LEARNING Learn-ing time (dose 4.10^-2 mmoli/kg i.p.): 110 s
